PubChem BioAssay AID743121 – NCATS – 2013

Aim: 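Partners whose loss is lethal together with topoisomerase I blockade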 (primary screen)
System: MDA-MB-231 cells, a human breast cancer line
Reagent: single siRNA against human genes, 20 nM siRNA (0.8 pmol per well)
Duration: 120 h (drug added 48 h after transfection, read 72 h later)
Conditions: camptothecin 20 nM (about EC30) for 72 h; vehicle 0.1% DMSO in parallel plates
Detection: 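CellTiter-Glo ATP signal, scaled to control siRNA as percent viability; sensitisation given as log2 of untreated divided by camptothecin-treated viability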
Scale: log2 vehicle/camptothecin viability: higher = stronger sensitisation to camptothecin; viability with camptothecin and viability without drug: higher = more viable cells
Hit rule: 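Active genes have an RSA gene-level p-value below 0.001, computed from the ratios of their separate siRNAs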
In all, the deposit lists about 26,000 reagents; below is a random part of them. Over the whole deposit, 167 (0.63%) got an active call. 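Calls are per gene from RSA p-values that are not deposited; an individual active-marked siRNA can sensitise only weakly.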 Unmarked entries are inactive. Reagents against one gene are numbered here.

no.	Gene	reagent	log2 vehicle/camptothecin viability	viability with camptothecin (% of control)	viability without drug (% of control)
1	NOX1 (GeneID 27035)	1	-0.127	88.8	81.3
2	NOX1 (GeneID 27035)	2	-0.00234	102	102
3	NOX1 (GeneID 27035)	3	-0.0326	81.4	79.6
4	NOX1 (GeneID 27035)	4	-0.474	92.6	66.7
5	FFAR3 (GeneID 2865)	1	-0.357	116	90.6
6	FFAR3 (GeneID 2865)	2	0.0361	62.5	64.1
7	FFAR3 (GeneID 2865)	3	-0.519	61.7	43
8	FFAR3 (GeneID 2865)	4	-0.327	89.9	71.7
9	FFAR3 (GeneID 2865)	5	-0.00264	107	106
10	FFAR3 (GeneID 2865)	6	-0.266	96.2	80
11	FFAR3 (GeneID 2865)	7	-0.0912	54.6	51.3
12	FFAR3 (GeneID 2865)	8	-0.397	25	19
13	CDH19 (GeneID 28513)	1	-0.214	82.3	70.9
14	CDH19 (GeneID 28513)	2	0.0212	96.9	98.4
15	CDH19 (GeneID 28513)	3	0.647	28.6	44.9
16	CDH19 (GeneID 28513)	4	-0.232	65.8	56
17	IL15 (GeneID 3600)	1	-0.163	96.2	85.9
18	IL15 (GeneID 3600)	2	-0.223	106	91.1
19	IL15 (GeneID 3600)	3	0.602	50	75.9
20	IL15 (GeneID 3600)	4	-0.562	74.2	50.3
21	PTP4A1 (GeneID 7803)	1	0.0725	81.4	85.5
22	PTP4A1 (GeneID 7803)	2	-0.222	109	93.4
23	PTP4A1 (GeneID 7803)	3	-0.331	66.4	52.8
24	PTP4A1 (GeneID 7803)	4	-0.339	87.2	68.9
25	KAT7 (GeneID 11143)	1	0.0384	71.2	73.2
26	KAT7 (GeneID 11143)	2	-0.325	92.9	74.2
27	KAT7 (GeneID 11143)	3	-0.691	91.3	56.6
28	KAT7 (GeneID 11143)	4	0.953	30.1	58.4
29	SLC24A4 (GeneID 123041)	1	-0.393	54.3	41.3
30	SLC24A4 (GeneID 123041)	2	-0.422	82.7	61.7
31	SLC24A4 (GeneID 123041)	3	-0.116	64.7	59.8
32	SLC24A4 (GeneID 123041)	4	0.147	71.3	79
33	ADRA1B (GeneID 147)	1	-0.379	90	69.3
34	ADRA1B (GeneID 147)	2	0.323	55.6	69.6
35	ADRA1B (GeneID 147)	3	-0.128	79.7	72.9
36	ADRA1B (GeneID 147)	4	1.13	33.5	73.4
37	SIRT5 (GeneID 23408)	1	-0.263	72.8	60.7
38	SIRT5 (GeneID 23408)	2	0.147	47.5	52.7
39	SIRT5 (GeneID 23408)	3	-0.627	69.8	45.2
40	SIRT5 (GeneID 23408)	4	-0.00057	62	62
41	ALDOA (GeneID 226)	1	-0.198	15.6	13.6
42	ALDOA (GeneID 226)	2	-0.683	43.4	27
43	ALDOA (GeneID 226)	3	0.216	1.16	1.35
44	ALDOA (GeneID 226)	4	-0.911	54.5	29
45	RAD51C (GeneID 5889)	1	0.531	39.4	56.9
46	RAD51C (GeneID 5889)	2	0.0202	90.9	92.2
47	RAD51C (GeneID 5889)	3	-0.0706	95	90.4
48	RAD51C (GeneID 5889)	4	0.0198	61.7	62.6
49	RAET1E (GeneID 135250)	1	-0.388	74	56.5
50	RAET1E (GeneID 135250)	2	0.133	75.6	82.9
51	RAET1E (GeneID 135250)	3	-0.293	92.7	75.7
52	RAET1E (GeneID 135250)	4	-0.571	92.2	62.1
53	STX1B (GeneID 112755)	1	-0.0499	70	67.6
54	STX1B (GeneID 112755)	2	0.0142	90.5	91.4
55	STX1B (GeneID 112755)	3	-0.705	102	62.5
56	STX1B (GeneID 112755)	4	-0.201	74	64.3
57	KIF3B (GeneID 9371)	1	-0.685	97.4	60.6
58	KIF3B (GeneID 9371)	2	0.0437	88.1	90.8
59	KIF3B (GeneID 9371)	3	-0.43	90.8	67.4
60	TRIM14 (GeneID 9830)	1	-0.103	69.2	64.4
61	TRIM14 (GeneID 9830)	2	-0.399	85.3	64.7
62	TRIM14 (GeneID 9830)	3	-0.12	111	102
63	TRIM14 (GeneID 9830)	4	-0.173	114	101
64	STAT2 (GeneID 6773)	1	-0.057	76.8	73.8
65	STAT2 (GeneID 6773)	2	0.092	86.7	92.4
66	STAT2 (GeneID 6773)	3	-0.232	74.1	63.1
67	MRGPRX1 (GeneID 259249)	1	-0.423	78.5	58.5
68	MRGPRX1 (GeneID 259249)	2	0.286	82.5	101
69	MRGPRX1 (GeneID 259249)	3	-0.202	68.6	59.7
70	MRGPRX1 (GeneID 259249)	4	-0.149	67.8	61.2

3 entries from above, arranged by “viability without drug (% of control)”, descending:
Gene	reagent	log2 vehicle/camptothecin viability	viability with camptothecin (% of control)	viability without drug (% of control)
KIF3B (GeneID 9371)	2	0.0437	88.1	90.8
KIF3B (GeneID 9371)	3	-0.43	90.8	67.4
TRIM14 (GeneID 9830)	1	-0.103	69.2	64.4
